# Data taken from patent US12324858B2, “Pharmaceutical formulation and system and method for delivery” (Rilento Pharma, LLC, priority 2018, dated 2025).
# Assay: BUP calibration: UV absorbance at 270 nm and 262 nm vs. BUP concentration in pH-2 water
# Details: for Relative Absorbance Intensity at 262 nm: pH-2 water spectrum subtracted
smiles,measurement,setting,value
"CCCCN1CCCCC1C(=O)Nc1c(C)cccc1C (centres unmarked) [BUP free base, bupivacaine]",Relative Absorbance Intensity at 262 nm,[BUP] 0.00022364 mg/ml in pH-2 water,−0.0825
same,Relative Absorbance Intensity at 262 nm,[BUP] 0.0022364 mg/ml in pH-2 water,−0.1004
same,Relative Absorbance Intensity at 262 nm,[BUP] 0.022364 mg/ml in pH-2 water,−0.0681
same,Relative Absorbance Intensity at 262 nm,[BUP] 0.22364 mg/ml in pH-2 water,0.2393
same,Relative Absorbance Intensity at 262 nm,[BUP] 0.72684 mg/ml in pH-2 water,1.1347
same,Relative Absorbance Intensity at 262 nm,[BUP] 1.2300 mg/ml in pH-2 water,2.0130
same,Relative Absorbance Intensity at 262 nm,[BUP] 2.2364 mg/ml in pH-2 water,3.0275
same,"Slope of linear best fit, absorption at 262 nm vs. BUP concentration (mg/ml)",pH-2 water,1.4482
